At least one compound was matched to its structure with a doubt left. Some results were stated once for a whole list of compounds, not compound by compound.
Target: mutant huntingtin aggregates (HDex1Q68 fused to ECFP/EYFP) (Homo sapiens, UniProt P42858, INS38QQQQQQQQQQQQQQQQQQQQQQQQQQQQQQQQQQQQQQQQQQQQQQQ)
Assay: Cellular FRET aggregation assay in stable Tet-off CHO-AA8/Q68-Q68 cells
Format: cell-based
Conditions: 48 h, 2% DMSO
Description: To determine the potential of possibly inhibiting substances the inventors performed dose response assays at concentrations ranging from 1, to 100 μM.
Screening was performed in 96-well plates (greiner bio-one) containing 1×10^4 cells/well of the stably inducible tet off cell lines htt-mut (six-fold) and CHO-AA8 line (three fold) for background control. Simultaneously, each compound was checked for its potential autofluorescence.
Two stable inducible CHO Tet off cell lines were constructed expressing simultaneously wildtype (CHO-AA8/Q17-Q17) or mutant (CHO-AA8/Q68-Q68) huntingtin fragments fused to ECFP or EYFP (FIG. 1B) after withdrawal of doxicycline (dox). Basal and induced expression levels of huntingtin fusion proteins were examined by Western blot analysis at different time intervals (4, 24, 48, and 72 hours). […] For the screening approach stable inducible huntingtin expressing cell lines were seeded in 96-well plates and the fluorescence intensities were measured with a fluorescence plate reader.
The test compounds were mixed in a fresh doxicycline-free medium with 2% DMSO and added to the Tet off cell lines two to three hours after seeding and attachment of the cells.
The FRET-measurement was performed 48 h later.
Subsequently, a second screening round was performed at concentration range 1, 3, and 10 μM, respectively.

O=C(CCCCCN1C(=O)c2cccc3cccc(c23)C1=O)NO [Scriptaid]
FRET-signal ↑ (concentration from which aggregation is increased) (listed as scriptaid): > 25 µM

COC1=C2C[C@@H](C)C[C@H](OC)[C@H](O)[C@@H](C)/C=C(\C)[C@H](OC(N)=O)[C@@H](OC)/C=C\C=C(/C)C(=O)NC(=CC1=O)C2=O [geldanamycin]
FRET-signal (effect in words): no effect
